These are yes or no findings as the source states them, for the method shown. In cells and extracts the contact can be indirect. Some binding calls cover weakened binding; strength is not graded here.
Target: Myc-Shank3-WT (UniProt Q9BYB0)
Experiment: co-IP; HEK293 cells co-transfected with HA-NLGN3-WT or HA-NLGN4X-WT and Myc-Shank3-WT; which protein was precipitated is not told

Chains of the proteins cited; added tags and fusions are not shown. Residues count along the entry.
UniProt Q9BYB0: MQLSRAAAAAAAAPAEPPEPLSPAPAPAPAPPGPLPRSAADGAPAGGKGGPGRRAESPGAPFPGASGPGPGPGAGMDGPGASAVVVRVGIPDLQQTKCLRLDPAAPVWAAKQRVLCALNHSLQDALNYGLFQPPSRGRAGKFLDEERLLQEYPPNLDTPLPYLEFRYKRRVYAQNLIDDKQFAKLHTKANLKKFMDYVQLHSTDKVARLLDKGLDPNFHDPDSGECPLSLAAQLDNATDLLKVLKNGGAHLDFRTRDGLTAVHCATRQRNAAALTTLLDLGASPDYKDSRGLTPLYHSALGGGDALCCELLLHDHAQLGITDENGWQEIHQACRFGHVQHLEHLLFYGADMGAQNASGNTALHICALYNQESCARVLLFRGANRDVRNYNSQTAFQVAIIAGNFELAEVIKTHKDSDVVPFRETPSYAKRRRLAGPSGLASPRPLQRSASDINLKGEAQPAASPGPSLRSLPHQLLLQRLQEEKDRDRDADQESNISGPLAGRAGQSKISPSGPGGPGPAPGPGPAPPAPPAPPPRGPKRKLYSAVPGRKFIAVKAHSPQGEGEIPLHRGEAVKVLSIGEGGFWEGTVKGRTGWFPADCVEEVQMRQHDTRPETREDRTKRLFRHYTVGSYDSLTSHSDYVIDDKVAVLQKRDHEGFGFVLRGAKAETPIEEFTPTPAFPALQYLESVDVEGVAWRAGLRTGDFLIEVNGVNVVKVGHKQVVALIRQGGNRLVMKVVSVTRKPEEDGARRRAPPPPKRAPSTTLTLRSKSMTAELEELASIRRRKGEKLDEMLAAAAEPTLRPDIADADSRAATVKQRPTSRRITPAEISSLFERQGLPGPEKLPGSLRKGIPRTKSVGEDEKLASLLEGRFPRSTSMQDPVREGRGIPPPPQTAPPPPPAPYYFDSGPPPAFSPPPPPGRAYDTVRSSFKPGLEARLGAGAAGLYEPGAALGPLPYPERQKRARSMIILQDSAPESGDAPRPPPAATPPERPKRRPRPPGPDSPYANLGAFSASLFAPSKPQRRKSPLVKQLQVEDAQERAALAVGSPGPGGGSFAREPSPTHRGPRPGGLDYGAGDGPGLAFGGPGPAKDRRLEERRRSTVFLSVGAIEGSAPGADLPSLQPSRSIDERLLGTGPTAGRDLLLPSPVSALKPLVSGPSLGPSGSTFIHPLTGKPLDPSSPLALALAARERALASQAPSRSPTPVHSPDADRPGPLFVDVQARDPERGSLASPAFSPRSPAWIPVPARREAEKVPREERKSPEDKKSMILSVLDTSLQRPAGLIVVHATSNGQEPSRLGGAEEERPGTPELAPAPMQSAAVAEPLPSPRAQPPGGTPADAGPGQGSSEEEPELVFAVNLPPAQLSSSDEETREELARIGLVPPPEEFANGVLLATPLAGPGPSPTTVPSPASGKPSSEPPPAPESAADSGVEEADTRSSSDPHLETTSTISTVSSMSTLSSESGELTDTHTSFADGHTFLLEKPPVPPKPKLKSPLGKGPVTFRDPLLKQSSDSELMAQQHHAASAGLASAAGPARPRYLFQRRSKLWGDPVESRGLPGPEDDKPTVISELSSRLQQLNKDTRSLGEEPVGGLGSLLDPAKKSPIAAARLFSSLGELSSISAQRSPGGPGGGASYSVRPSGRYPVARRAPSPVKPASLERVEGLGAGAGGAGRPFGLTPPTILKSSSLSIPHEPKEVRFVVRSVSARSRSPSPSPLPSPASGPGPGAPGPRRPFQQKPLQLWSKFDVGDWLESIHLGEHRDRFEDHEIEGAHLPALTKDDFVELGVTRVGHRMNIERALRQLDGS
UniProt Q9NZ94, residues 38-848: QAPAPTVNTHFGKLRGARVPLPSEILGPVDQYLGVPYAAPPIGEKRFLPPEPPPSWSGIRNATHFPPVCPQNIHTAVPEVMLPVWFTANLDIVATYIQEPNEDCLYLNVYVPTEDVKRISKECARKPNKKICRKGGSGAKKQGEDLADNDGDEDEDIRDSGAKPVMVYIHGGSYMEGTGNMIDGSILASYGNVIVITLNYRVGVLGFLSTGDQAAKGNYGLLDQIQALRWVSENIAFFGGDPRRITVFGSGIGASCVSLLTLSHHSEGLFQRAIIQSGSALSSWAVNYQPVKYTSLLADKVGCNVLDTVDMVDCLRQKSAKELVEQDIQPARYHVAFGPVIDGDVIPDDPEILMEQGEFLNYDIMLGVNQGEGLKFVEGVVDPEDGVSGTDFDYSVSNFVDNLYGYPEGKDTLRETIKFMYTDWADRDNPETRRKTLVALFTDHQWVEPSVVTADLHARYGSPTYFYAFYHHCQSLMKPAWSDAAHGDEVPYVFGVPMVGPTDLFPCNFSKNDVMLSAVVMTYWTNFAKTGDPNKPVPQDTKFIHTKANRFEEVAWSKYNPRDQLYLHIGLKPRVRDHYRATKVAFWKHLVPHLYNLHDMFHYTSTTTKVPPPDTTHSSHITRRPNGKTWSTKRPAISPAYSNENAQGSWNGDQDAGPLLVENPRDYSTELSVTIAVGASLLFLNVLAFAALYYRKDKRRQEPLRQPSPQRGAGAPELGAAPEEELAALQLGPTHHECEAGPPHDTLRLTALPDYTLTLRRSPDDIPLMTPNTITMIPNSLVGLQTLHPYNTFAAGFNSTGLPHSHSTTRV

binding | Substance
binds | HA-tagged wildtype neuroligin-3 (from UniProt Q9NZ94 38-848)
binds | HA-tagged wildtype neuroligin-4X (from UniProt Q8N0W4 42-816)

Source: paper PMC8895740
